# Test results: paper PMC6895976
# Target: EGFP-ERK
# Experiment: FRET or BRET; time-lapse tri-molecular FRET microscopy in transiently transfected live cells (4T1 by text and methods, COS7 by the legend); energy transfer from ECFP to EGFP to DsRed; ceritinib 30 µM; rise of the signal in less than 2 h
binder,measurement,value
"DsRed-WWOX (protein, UniProt Q9NZC7 1-414) MAALRYAGLDDTDSEDELPPGWEERTTKDGWVYYANHTEEKTQWEHPKTGKRKRVAGDLPYGWEQETDENGQVFFVDHINKRTTYLDPRLAFTVDDNPTKPTTRQRYDGSTTAMEILQGRDFTGKVVVVTGANSGIGFETAKSFALHGAHVILACRNMARASEAVSRILEEWHKAKVEAMTLDLALLRSVQHFAEAFKAKNVPLHVLVCNAATFALPWSLTKDGLETTFQVNHLGHFYLVQLLQDVLCRSAPARVIVVSSESHRFTDINDSLGKLDFSRLSPTKNDYWAMLAYNRSKLCNILFSNELHRRLSPRGVTSNAVHPGNMMYSNIHRSWWVYTLLFTLARPFTKSMQQGAATTVYCAAVPELEGLGGMYFNNCCRCMPSPEAQSEETARTLWALSERLIQERLGSQSG",binding,binds

# These are yes or no findings as the source states them, for the method shown. In cells and extracts the contact can be indirect. Binding can be weak; no strength is given.
